This passage reports binding results from publication PMC4807078.

The chains behind the UniProt entries cited, without tags or fusion partners.
UniProt P26358: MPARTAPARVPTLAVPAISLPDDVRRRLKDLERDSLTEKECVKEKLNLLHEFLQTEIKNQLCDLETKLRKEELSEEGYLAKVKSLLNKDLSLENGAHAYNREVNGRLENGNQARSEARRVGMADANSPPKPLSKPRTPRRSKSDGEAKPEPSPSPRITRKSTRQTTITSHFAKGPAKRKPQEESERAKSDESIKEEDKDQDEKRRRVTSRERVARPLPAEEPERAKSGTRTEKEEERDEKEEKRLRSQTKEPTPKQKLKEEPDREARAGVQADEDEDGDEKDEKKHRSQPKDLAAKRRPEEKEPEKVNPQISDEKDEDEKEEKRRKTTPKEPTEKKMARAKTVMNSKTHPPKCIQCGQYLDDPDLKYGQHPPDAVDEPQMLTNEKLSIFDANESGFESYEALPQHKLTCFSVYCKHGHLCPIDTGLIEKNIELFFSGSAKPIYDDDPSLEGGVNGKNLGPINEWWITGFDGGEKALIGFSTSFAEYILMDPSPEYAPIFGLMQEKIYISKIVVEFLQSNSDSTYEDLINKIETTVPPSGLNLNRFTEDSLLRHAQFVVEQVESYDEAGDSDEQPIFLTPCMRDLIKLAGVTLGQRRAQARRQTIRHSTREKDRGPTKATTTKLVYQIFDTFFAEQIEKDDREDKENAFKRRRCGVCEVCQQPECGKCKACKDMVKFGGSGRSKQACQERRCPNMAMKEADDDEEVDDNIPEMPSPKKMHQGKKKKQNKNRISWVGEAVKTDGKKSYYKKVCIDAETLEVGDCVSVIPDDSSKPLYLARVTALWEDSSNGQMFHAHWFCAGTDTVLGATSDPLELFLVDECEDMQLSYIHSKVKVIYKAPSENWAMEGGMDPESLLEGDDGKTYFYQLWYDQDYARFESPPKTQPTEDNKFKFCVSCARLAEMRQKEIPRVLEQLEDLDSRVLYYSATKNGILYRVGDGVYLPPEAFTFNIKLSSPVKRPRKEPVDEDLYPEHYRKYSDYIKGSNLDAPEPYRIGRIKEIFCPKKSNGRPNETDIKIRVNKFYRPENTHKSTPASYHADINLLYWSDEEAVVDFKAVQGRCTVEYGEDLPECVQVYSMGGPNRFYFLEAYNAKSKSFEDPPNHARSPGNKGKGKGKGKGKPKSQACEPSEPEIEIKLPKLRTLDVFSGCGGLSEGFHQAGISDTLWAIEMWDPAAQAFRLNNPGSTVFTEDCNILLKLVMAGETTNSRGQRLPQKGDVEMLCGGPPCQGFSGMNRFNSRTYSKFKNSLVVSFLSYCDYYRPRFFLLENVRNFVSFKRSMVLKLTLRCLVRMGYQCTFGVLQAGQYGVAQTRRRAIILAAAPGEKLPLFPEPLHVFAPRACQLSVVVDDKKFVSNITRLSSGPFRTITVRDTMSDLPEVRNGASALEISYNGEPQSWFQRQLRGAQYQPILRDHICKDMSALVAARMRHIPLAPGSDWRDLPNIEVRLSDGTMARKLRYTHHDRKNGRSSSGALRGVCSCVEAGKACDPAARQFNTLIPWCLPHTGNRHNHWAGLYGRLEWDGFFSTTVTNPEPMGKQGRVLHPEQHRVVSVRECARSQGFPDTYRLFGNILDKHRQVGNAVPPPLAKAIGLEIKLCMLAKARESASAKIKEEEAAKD
UniProt P15976: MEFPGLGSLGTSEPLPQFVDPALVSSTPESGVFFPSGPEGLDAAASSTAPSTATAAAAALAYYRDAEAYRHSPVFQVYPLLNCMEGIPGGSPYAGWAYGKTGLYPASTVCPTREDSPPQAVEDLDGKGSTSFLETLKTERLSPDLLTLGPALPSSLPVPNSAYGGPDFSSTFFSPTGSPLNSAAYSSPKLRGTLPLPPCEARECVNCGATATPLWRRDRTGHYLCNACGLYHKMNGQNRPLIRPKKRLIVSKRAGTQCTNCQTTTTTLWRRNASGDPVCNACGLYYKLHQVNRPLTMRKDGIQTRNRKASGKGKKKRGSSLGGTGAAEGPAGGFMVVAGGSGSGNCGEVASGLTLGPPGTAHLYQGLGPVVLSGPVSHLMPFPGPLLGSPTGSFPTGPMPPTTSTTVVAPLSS

This test concerns the target DNA methyl Transferase I (DNMT1) (human (endogenous in OCI-M2 and K562)) (UniProt P26358). As to the kind of experiment: co-IP; endogenous proteins of OCI-M2 and K562 cells; precipitated with anti-DNMT1 antibody (control IgG beside it), 2h incubation, washed 3x in 0.1% Triton X-100, 50mM Tris-HCl pH7.4, 300mM NaCl, 5mM EDTA; immunoblot for GATA-1 and PU.1.

Results are given in words; binding and its absence hold for the method and conditions named. Binding seen in cells or lysates may run through a third protein. Some binding calls cover weakened binding; strength is not graded here.

GATA-1 (from UniProt P15976 1-413): the binding result is reported as “binds”.
